The experiment concerns the target T1, Neurexin IV-GFP fusion protein (protein trap line) (Drosophila (endogenous in embryos)) (UniProt Q94887).
T1 sequence: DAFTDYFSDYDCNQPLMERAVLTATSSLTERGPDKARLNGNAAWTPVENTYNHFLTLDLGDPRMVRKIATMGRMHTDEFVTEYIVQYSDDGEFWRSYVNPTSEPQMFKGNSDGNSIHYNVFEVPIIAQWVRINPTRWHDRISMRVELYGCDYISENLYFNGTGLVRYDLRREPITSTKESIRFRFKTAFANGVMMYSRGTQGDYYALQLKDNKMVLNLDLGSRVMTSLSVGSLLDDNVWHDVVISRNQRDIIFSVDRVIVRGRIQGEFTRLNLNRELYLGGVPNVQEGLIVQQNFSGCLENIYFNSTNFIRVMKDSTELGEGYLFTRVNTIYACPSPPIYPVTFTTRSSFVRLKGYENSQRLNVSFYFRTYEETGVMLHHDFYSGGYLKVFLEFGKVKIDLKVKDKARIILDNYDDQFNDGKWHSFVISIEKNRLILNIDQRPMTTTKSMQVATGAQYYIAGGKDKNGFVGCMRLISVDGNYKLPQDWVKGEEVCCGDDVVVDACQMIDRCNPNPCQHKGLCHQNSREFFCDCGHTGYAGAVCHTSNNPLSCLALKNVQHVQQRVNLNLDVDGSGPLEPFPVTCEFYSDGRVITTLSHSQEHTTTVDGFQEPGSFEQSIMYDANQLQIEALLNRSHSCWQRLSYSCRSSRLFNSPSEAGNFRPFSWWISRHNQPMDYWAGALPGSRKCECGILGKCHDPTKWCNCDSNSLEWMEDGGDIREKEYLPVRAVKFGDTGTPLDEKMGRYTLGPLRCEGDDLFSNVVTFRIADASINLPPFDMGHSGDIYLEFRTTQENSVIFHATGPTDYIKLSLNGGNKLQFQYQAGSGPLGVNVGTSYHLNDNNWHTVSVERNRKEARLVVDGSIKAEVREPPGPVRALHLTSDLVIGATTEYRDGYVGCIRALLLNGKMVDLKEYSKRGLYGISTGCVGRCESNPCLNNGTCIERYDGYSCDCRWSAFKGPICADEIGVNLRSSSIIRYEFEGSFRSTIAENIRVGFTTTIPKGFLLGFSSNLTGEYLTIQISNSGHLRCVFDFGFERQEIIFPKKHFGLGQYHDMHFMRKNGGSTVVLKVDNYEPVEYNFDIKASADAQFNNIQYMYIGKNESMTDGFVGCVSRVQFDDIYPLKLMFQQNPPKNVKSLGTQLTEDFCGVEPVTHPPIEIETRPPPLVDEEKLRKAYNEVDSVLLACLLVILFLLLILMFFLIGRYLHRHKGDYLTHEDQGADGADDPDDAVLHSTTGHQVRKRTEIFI
Briefly: co-IP; NrxIV-GFP/TM6B embryos (> 8 h) lysed in CHAPS lysis buffer (20 mM Tris-HCl pH 8, 150 mM NaCl, 10% glycerol, 2 mM EDTA, 10 mM CHAPS); immunoprecipitation with mouse anti-GFP antibody, control anti-beta-gal antibody; Varicose detected with rabbit anti-Vari.

These are yes or no findings as the source states them, for the method shown. In cells and extracts the contact can be indirect. Binding calls can cover weak binding; strength is not graded here. Where a sequence is shown, tags or fusion partners need not be part of it.

For two substances, binding results are on record in article PMC2414870.

In the case of “Varicose, long isoform (Vari-long) (Drosophila (endogenous in embryos))”, the binding entry is reported as “binds”.

Turning to “Varicose, short isoform (Vari-short) (Drosophila (endogenous in embryos))”, the binding result is “binds”.
